Measured values taken from the supplement of paper PMC12819154, “High-throughput peptide-centric local stability assay extends protein–ligand identification to membrane proteins, tissues and bacteria” (Nature Structural & Molecular Biology, 2025).
The list shows a part of the results, in another mix than the full data. Most entries show no effect beyond the scatter of the controls.
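Note: lysate desalted by size exclusion to strip endogenous ATP, peptide intensities built from DIA-NN precursor signals, and peptides missing any value discarded before comparison.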

Protein sequences, listed by entry. Tags and fused reporters are not part of them. Lines headed by an entry give the natural chain unless they say otherwise; changes in a name come on top.
UniProt P12281: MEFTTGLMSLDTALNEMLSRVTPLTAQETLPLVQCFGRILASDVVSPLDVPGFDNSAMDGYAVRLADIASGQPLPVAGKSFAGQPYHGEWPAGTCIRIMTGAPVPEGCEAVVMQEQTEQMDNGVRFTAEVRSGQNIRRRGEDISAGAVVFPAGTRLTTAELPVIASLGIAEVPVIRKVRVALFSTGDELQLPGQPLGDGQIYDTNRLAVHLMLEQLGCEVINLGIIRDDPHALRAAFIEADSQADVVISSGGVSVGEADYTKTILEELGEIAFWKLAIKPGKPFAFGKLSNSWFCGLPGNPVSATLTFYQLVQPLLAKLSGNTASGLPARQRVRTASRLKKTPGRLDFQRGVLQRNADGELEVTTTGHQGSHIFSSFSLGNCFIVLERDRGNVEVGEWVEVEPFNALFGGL
UniProt P10151: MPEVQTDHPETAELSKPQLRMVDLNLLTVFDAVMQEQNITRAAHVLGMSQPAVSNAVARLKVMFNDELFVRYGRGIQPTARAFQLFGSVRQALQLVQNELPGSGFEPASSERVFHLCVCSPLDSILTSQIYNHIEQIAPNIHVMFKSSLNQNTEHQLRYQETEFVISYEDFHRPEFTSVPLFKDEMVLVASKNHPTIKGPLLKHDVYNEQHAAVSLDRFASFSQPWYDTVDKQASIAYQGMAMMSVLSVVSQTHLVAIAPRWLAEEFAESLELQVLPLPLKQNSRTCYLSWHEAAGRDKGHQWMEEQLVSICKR
UniProt P0DSF4: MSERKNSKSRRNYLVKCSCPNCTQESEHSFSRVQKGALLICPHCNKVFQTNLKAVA
UniProt P14407: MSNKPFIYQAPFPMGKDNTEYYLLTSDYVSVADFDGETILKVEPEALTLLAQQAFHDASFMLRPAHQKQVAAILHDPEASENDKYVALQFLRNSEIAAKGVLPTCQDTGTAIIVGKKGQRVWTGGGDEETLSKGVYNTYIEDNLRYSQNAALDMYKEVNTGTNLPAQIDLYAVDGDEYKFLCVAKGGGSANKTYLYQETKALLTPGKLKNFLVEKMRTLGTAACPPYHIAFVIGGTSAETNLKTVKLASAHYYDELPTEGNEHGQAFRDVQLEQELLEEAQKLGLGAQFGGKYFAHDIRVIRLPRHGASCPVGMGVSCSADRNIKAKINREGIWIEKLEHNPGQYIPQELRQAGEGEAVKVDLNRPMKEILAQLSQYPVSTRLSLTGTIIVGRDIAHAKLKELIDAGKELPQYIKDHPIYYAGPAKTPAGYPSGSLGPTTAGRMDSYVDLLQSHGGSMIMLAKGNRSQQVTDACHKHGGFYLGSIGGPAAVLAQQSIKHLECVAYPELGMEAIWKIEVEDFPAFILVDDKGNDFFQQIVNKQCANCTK
UniProt P13445, whole entry: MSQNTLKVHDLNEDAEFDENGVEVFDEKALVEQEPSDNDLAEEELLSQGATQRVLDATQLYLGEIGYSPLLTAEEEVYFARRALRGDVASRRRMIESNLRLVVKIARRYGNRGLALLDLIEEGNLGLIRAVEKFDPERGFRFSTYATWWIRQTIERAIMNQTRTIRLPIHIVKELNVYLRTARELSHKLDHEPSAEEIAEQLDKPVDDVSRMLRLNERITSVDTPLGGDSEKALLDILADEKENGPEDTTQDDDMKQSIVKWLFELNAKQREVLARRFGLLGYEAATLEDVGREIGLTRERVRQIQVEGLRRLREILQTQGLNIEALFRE
UniProt P0CF66: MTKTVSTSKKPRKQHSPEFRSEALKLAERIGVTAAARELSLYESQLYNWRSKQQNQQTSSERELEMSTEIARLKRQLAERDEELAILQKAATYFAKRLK
UniProt P0DM85: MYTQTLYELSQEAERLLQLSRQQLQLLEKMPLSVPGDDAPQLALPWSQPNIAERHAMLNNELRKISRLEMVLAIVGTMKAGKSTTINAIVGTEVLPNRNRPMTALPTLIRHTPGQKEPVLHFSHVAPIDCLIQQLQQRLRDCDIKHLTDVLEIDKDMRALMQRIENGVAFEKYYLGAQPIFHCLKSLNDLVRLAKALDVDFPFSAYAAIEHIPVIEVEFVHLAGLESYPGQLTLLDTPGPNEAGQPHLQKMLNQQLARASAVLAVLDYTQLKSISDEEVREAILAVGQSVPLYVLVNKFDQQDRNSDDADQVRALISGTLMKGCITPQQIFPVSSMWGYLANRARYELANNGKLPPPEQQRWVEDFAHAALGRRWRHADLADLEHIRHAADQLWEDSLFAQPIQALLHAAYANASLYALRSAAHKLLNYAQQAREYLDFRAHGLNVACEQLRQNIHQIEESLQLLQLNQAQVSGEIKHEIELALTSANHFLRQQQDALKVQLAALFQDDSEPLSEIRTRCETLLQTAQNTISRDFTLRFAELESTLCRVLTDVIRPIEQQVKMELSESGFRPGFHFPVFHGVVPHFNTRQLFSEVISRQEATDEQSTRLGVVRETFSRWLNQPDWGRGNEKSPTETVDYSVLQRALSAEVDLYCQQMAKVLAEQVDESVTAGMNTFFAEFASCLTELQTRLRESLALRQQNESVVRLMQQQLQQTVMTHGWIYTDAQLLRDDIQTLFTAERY
UniProt P10100: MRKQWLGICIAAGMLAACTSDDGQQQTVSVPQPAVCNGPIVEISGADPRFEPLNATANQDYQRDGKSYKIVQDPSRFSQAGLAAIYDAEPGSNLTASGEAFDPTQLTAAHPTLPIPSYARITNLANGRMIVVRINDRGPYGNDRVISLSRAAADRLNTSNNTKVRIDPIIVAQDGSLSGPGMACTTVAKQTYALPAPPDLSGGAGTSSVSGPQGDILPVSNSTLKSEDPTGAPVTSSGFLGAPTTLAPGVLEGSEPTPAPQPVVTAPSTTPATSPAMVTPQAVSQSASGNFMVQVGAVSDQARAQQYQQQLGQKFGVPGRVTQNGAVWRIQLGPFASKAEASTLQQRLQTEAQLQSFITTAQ
UniProt P15070: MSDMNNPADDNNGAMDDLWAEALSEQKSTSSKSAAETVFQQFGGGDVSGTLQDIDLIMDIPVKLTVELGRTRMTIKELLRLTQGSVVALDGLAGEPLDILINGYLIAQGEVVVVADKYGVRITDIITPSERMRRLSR
UniProt P13669: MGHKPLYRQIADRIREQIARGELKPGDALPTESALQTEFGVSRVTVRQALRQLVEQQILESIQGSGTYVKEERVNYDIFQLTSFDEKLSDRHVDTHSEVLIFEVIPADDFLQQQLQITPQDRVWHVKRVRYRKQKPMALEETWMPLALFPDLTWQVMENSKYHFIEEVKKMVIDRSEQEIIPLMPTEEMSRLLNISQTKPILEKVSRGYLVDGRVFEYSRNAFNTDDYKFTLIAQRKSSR
UniProt P15032: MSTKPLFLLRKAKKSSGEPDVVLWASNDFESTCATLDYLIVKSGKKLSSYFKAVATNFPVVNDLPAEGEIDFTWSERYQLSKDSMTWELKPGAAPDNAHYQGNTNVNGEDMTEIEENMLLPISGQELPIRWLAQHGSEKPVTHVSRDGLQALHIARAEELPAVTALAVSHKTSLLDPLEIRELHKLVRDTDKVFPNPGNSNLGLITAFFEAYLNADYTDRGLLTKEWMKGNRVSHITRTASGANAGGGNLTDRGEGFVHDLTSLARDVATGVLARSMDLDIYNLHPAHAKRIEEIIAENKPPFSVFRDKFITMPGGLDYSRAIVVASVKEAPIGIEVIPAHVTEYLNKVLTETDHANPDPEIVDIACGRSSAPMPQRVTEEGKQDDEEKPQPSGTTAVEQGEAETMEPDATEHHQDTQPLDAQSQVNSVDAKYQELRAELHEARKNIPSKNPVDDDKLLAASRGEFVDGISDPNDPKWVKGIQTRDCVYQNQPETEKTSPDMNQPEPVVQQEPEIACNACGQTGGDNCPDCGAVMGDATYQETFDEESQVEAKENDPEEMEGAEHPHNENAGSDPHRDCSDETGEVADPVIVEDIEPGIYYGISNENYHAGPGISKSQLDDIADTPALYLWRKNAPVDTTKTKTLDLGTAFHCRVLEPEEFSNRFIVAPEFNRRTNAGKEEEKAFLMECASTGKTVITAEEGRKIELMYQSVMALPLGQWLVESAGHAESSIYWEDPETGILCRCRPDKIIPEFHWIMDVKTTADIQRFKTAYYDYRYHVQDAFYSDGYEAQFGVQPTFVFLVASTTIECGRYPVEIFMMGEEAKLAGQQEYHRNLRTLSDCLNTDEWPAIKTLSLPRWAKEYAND
UniProt P12995: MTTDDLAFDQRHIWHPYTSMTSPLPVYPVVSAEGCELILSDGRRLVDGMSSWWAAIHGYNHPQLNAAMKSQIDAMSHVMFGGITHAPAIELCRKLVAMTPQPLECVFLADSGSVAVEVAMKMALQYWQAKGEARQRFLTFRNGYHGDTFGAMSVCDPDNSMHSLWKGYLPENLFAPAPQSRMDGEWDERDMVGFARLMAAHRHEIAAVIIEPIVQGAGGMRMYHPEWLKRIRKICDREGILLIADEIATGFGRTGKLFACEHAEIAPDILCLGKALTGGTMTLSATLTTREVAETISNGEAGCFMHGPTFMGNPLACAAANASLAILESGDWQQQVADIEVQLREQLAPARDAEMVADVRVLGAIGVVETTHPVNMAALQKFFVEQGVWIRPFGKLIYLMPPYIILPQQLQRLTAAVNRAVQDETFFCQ
UniProt P11663: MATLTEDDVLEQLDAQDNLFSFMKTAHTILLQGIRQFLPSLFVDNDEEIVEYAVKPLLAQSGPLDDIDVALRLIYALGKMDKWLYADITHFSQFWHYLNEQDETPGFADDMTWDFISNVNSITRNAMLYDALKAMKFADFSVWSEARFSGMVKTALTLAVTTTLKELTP
UniProt P11349: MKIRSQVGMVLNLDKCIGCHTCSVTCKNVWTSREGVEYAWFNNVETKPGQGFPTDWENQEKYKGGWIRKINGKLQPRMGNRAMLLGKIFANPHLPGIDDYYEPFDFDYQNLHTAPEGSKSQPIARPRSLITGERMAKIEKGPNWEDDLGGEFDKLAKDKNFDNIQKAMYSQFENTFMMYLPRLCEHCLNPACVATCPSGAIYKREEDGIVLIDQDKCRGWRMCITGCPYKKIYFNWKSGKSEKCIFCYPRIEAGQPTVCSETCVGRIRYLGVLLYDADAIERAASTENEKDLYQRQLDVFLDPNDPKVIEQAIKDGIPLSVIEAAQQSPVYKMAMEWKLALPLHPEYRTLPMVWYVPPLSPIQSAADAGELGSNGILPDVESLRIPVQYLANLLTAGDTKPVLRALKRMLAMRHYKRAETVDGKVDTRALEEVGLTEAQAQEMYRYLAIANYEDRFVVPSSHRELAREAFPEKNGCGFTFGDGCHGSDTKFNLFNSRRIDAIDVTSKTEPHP
UniProt P10902: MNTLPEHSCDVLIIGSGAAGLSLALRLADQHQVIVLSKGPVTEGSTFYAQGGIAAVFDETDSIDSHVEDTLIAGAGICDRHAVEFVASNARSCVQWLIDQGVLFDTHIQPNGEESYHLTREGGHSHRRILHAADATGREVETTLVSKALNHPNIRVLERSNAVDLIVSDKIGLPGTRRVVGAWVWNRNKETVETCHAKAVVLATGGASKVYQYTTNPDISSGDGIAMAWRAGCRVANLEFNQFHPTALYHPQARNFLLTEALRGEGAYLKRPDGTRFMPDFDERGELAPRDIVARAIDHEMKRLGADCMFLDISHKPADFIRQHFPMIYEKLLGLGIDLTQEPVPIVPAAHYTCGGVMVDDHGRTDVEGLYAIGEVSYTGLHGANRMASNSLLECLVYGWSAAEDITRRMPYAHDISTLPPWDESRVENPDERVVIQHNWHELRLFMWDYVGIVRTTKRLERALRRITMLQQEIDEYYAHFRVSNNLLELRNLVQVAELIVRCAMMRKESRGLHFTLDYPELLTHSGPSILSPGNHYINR
UniProt P0AFR0: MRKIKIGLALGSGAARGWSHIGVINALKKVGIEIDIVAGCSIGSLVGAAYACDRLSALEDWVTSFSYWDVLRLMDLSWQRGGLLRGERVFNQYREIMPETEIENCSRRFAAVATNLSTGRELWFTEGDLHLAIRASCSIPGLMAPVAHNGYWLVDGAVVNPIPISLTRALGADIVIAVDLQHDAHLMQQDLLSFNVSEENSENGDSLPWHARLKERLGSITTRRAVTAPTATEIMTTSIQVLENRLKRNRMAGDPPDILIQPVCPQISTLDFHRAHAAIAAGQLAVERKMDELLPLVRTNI
UniProt P12758: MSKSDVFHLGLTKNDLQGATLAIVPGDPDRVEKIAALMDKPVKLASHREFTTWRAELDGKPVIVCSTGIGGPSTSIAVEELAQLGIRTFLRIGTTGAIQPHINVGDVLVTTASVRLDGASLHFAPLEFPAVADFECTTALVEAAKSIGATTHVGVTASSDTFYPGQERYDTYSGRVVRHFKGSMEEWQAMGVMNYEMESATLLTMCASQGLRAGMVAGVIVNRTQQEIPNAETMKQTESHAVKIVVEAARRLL
UniProt P0AFW8: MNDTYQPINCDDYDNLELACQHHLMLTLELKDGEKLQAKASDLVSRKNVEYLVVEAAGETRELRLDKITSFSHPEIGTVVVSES
UniProt P13016: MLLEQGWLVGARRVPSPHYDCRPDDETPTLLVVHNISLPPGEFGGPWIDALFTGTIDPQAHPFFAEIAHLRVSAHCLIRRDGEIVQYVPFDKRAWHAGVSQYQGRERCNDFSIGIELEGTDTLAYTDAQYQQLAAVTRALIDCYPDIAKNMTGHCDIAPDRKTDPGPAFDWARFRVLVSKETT

These targets were tested with Nc1ncnc2c1ncn2[C@@H]1O[C@H](COP(=O)(O)OP(=O)(O)OP(=O)(O)O)[C@@H](O)[C@H]1O [adenosine 5'-triphosphate] (assay: log2 fold change of tryptic peptide abundance, ligand vs vehicle (limited proteolysis) (log2 ratio); higher = more trypsin-susceptible (destabilized)). Details: ligand concentration: 5 mM; sample: E. coli desalted lysate; replicate design: treated before aliquoting.
Description: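 HT-PELSA: desalted E. coli K-12 BW25113 lysate (with 12 mM MgCl2) incubated with 5 mM ATP (pH 7) or water for 30 min at 25 C, then a 4 min trypsin pulse at 22 C. Peptides were quantified by DIA-MS (4 replicates). Value is the peptide log2 fold change (treated/control); negative = stabilized. Scale: negative = ligand-stabilized region.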
For “UniProt P12281 (peptide sequence: LSGNTASGLPAR, peptide start residue: 319)”, the log2 fold change was 0.838. With “UniProt P10151 (peptide sequence: AFQLFGSVR, peptide start residue: 82)” the log2 fold change was 0.645. “UniProt P15286 (peptide sequence: TILTLLQEGK, peptide start residue: 139)” showed a log2 fold change of 0.253. Target “UniProt P0AF43 (peptide sequence: MPKEELAEEESR, peptide start residue: 388)” has a log2 fold change of -0.276. “UniProt P15078 (peptide sequence: HNDGLDYVPTDKK, peptide start residue: 74)” was tested, and the log2 fold change was -0.231. “UniProt P0DSF4 (peptide sequence: GALLICPHCNK, peptide start residue: 36)” showed a log2 fold change of 0.34. “UniProt P11289 (peptide sequence: GYAEGQKK, peptide start residue: 66)” showed a log2 fold change of 0.329. “UniProt P14407 (peptide sequence: LEHNPGQYIPQELR, peptide start residue: 338)” gave a log2 fold change of 0.516. “UniProt P13445 (peptide sequence: LDHEPSAEEIAEQLDKPVDDVSR, peptide start residue: 189)” showed a log2 fold change of -0.375. In the case of “UniProt P0AGH1 (peptide sequence: DVLAGRQPDIQVNVDATR, peptide start residue: 108)”, the log2 fold change is reported as -0.132. “UniProt P10378 (peptide sequence: SCAYLVVKEPLR, peptide start residue: 474)” showed a log2 fold change of -0.252. Work on “UniProt P13036 (peptide sequence: ENDVFEHAGAR, peptide start residue: 127)” yielded a log2 fold change of -0.0734. For “UniProt P0CF66 (peptide sequence: QLAERDEELAILQK, peptide start residue: 76)”, the log2 fold change was 0.199. In the case of “UniProt P0CK95 (peptide sequence: WFSLTTR, peptide start residue: 436)”, the log2 fold change is reported as 0.272. In the case of “UniProt P0DM85 (peptide sequence: LLNYAQQAR, peptide start residue: 426)”, the log2 fold change is reported as 0.735. “UniProt P12999 (peptide sequence: QAIAAAFGR, peptide start residue: 7)” was tested, and the log2 fold change was 0.489. In the case of “UniProt P10100 (peptide sequence: AEASTLQQR, peptide start residue: 339)”, the log2 fold change is reported as 0.123. “UniProt P11072 (peptide sequence: NNDEHFDLTGK, peptide start residue: 91)” gave a log2 fold change of 0.19. “UniProt P15028 (peptide sequence: EESIVKR, peptide start residue: 239)” was tested, and the log2 fold change was 0.248. “UniProt P13039 (peptide sequence: AGEVSAEGLR, peptide start residue: 327)” gave a log2 fold change of -0.551. “UniProt P15070 (peptide sequence: ITDIITPSER, peptide start residue: 122)” gave a log2 fold change of -0.07. With “UniProt P13669 (peptide sequence: IREQIAR, peptide start residue: 14)” the log2 fold change was -0.556. “UniProt P0CF40 (peptide sequence: KTMENELLK, peptide start residue: 90)” was tested, and the log2 fold change was -0.682. “UniProt P15032 (peptide sequence: FIVAPEFNR, peptide start residue: 665)” gave a log2 fold change of -0.604. “UniProt P15877 (peptide sequence: GVSYHEAK, peptide start residue: 267)” was tested, and the log2 fold change was -0.525. “UniProt P12995 (peptide sequence: MDGEWDER, peptide start residue: 182)” showed a log2 fold change of -0.0904. Target “UniProt P11663 (peptide sequence: NAMLYDALK, peptide start residue: 125)” has a log2 fold change of 0.276. For “UniProt P11349 (peptide sequence: EEDGIVLIDQDKCR, peptide start residue: 205)”, the log2 fold change was 0.357. Work on “UniProt P0AFF4 (peptide sequence: VPTGTQTVSH, peptide start residue: 409)” yielded a log2 fold change of -0.424. For “UniProt P10902 (peptide sequence: AVVLATGGASK, peptide start residue: 199)”, the log2 fold change was 0.0539. With “UniProt P15006 (peptide sequence: GFHLNHGK, peptide start residue: 84)” the log2 fold change was -0.161. “UniProt P0AFR0 (peptide sequence: LMDLSWQR, peptide start residue: 73)” showed a log2 fold change of -0.247. For “UniProt P12758 (peptide sequence: IVVEAARR, peptide start residue: 244)”, the log2 fold change was -1.03. In the case of “UniProt P13656 (peptide sequence: ANDATNPWR, peptide start residue: 63)”, the log2 fold change is reported as -0.185. “UniProt P0AFP2 (peptide sequence: EDSFPQR, peptide start residue: 30)” showed a log2 fold change of -0.27. Work on “UniProt P0AEX3 (peptide sequence: ALKEAGSLK, peptide start residue: 228)” yielded a log2 fold change of -0.331. Work on “UniProt P0AFW8 (peptide sequence: KNVEYLVVEAAGETR, peptide start residue: 47)” yielded a log2 fold change of -0.362. In the case of “UniProt P0CG19 (peptide sequence: HAEGSVLVEFGDTK, peptide start residue: 23)”, the log2 fold change is reported as -0.391. Target “UniProt P13016 (peptide sequence: TDPGPAFDWAR, peptide start residue: 163)” has a log2 fold change of -0.279. Work on “UniProt P0AFK9 (peptide sequence: LINFLLRPDVAK, peptide start residue: 274)” yielded a log2 fold change of 0.585.
